## Library screen at single concentrations

Sequences of proteins named here, by UniProt entry; tags and fusion partners are left off. Residues count along the entry.
UniProt Q4DA54, 1-478: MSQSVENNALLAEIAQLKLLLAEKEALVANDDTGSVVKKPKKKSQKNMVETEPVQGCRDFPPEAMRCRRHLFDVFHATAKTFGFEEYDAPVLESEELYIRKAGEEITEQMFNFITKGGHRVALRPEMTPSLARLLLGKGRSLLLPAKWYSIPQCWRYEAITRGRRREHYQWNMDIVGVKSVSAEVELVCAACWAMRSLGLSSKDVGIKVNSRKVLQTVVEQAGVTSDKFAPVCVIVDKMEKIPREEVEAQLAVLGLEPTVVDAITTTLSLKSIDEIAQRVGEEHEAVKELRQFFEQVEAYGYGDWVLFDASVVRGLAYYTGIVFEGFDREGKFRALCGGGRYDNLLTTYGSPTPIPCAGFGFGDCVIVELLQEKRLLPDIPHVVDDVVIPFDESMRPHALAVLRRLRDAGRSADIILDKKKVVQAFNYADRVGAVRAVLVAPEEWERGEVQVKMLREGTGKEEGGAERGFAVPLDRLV
UniProt P9WFT3, whole entry: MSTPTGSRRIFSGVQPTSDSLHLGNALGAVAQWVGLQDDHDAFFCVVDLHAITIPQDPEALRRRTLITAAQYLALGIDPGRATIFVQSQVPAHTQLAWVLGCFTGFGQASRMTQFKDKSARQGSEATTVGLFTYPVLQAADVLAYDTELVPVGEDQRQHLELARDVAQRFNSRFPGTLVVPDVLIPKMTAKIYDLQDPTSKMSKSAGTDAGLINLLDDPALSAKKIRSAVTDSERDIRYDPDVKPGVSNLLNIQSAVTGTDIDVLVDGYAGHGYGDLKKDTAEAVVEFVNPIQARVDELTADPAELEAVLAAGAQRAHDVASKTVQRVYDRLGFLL
UniProt I6X8D2, whole entry: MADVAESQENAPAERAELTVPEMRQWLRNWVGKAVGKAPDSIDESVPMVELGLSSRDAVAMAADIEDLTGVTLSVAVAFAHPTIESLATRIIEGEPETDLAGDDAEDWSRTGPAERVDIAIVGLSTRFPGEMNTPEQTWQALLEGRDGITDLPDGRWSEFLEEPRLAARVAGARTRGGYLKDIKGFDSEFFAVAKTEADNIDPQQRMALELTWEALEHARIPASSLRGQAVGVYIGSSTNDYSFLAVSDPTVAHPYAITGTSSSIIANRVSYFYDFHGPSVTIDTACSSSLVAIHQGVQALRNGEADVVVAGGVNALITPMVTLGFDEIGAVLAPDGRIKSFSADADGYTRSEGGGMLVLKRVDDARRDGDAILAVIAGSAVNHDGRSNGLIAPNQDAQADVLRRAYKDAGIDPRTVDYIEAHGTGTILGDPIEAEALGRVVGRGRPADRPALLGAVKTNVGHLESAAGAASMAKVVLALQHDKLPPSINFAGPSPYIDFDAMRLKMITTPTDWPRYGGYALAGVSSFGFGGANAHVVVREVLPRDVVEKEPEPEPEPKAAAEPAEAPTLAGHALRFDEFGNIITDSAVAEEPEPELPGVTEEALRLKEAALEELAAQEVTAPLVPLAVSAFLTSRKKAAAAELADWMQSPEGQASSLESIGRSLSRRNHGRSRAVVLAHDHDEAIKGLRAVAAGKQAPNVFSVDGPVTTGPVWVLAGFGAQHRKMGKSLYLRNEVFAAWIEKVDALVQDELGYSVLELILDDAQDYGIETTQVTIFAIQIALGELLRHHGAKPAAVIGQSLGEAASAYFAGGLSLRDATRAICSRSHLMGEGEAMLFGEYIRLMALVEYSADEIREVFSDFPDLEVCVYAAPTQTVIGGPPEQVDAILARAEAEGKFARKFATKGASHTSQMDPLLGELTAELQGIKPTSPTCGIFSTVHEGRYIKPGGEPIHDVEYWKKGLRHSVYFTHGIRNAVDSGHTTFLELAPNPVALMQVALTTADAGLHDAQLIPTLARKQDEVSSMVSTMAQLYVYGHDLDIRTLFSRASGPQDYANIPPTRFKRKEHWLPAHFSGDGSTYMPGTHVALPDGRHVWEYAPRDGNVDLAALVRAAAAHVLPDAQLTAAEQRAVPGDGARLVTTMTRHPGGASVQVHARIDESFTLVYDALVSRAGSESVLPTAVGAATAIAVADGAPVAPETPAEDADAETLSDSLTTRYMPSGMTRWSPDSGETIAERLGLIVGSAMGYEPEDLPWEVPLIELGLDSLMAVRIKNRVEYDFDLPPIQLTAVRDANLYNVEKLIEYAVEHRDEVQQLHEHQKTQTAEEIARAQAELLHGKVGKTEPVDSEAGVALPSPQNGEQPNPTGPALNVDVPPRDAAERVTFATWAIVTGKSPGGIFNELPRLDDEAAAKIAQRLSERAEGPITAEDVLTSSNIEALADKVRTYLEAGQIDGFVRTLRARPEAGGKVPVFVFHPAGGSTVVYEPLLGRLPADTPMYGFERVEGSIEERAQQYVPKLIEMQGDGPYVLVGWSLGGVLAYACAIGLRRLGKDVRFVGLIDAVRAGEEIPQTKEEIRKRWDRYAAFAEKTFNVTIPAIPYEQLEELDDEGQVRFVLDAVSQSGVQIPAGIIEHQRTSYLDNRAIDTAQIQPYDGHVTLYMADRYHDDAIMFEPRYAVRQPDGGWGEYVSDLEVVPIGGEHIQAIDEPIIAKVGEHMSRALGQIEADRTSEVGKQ
UniProt Q8IDJ8, 1-583: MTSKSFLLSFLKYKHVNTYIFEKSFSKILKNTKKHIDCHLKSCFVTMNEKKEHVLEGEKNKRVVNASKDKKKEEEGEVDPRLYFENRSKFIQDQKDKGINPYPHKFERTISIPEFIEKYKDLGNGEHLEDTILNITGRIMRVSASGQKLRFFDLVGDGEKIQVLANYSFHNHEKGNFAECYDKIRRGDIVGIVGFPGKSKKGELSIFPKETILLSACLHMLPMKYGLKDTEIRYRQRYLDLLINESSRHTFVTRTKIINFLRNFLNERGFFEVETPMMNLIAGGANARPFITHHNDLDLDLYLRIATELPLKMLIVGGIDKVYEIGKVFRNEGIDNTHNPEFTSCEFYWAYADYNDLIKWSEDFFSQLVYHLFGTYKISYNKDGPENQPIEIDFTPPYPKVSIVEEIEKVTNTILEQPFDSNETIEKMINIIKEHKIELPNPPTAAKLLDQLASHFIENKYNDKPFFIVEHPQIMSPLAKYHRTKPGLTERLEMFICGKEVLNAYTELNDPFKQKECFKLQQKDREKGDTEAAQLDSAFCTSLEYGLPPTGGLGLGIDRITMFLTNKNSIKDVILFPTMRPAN

From ChEMBL document CHEMBL3988442, “University of Dundee, Small-Polar-MMV Screening Library” (2021).

Results are given as percent effect.
How 0% and 100% were set is not recorded. Most values in the screen are low, and negative values occur.
This is an unselected part of the compounds tested.
A dash means the value is not listed here; it may have been measured.

A: 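Enzyme assay of histidyl-tRNA synthetase; the read-out is not stated. Target: Histidine-tRNA ligase, Trypanosoma cruzi CL Brener (UniProt Q4DA54). Compounds at 30 µM. The record gives no direction; compounds that gave an IC50 in retests scored well above the rest, so higher reads as stronger inhibition. About 69,000 compounds were tested under these conditions; 0.045% (about 31) showed 50% or more at least once.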
B: 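Tryptophan-tRNA ligase, Mycobacterium tuberculosis (UniProt P9WFT3). Enzyme assay of tryptophanyl-tRNA synthetase; the read-out is not stated. Compounds at 10 µM. Higher most likely means stronger inhibition; the record gives no direction and few retests gave an IC50. Size under these conditions: about 65,000 compounds, about 64 of them at 50% or above in at least one test.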
C: 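Enzyme assay of the thioesterase domain of polyketide synthase 13; the read-out is not stated. Target: Polyketide synthase Pks13, Mycobacterium tuberculosis (UniProt I6X8D2). Compounds at 30 µM. The record gives no direction; the compounds picked for IC50 retests had high values, so higher reads as stronger inhibition. Of about 67,000 compounds tested this way, about 300 (0.46%) reached 50% or more in at least one test.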
D: 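Lysine-tRNA ligase, Plasmodium falciparum 3D7 (UniProt Q8IDJ8). Enzyme assay of the cytosolic lysyl-tRNA synthetase in 384-well plates, read by luminescence. Concentration: 30 µM. Higher reads as stronger inhibition, judged from the few compounds that gave an IC50. About 69,000 compounds were tested under these conditions; 0.071% (about 49) showed 50% or more at least once.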
E: 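Assay of Toxoplasma gondii numbers, read through their beta-galactosidase reporter with a colour substrate. Compounds at 10 µM. Higher reads as fewer parasites (inferred from which compounds were picked for retests). About 67,000 compounds were tested under these conditions; 0.38% (about 260) showed 50% or more at least once.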

| structure | A | B | C | D | E |
|---|---|---|---|---|---|
| `Cc1nc(C)n(CC2CCCN2Cc2cn3c(C)cccc3n2)n1` (centres undefined) | 1.132 | 0.4223 | -10.65 | 1.113 | 5.812 |
| `COc1ccc(CN2CCn3cc(CNC(=O)C4CCC4)nc3C2)cc1` | 9.804 | 3.255 | 14.4 | 5.478 | - |
| `CN(C)Cc1cccc(-c2cccnc2C(=O)NCc2ccco2)c1` | 2.26 | -4.243 | -2.731 | 1.138 | -2.096 |
| `CCN(CC1CN(Cc2ncc(C)o2)CCO1)c1cccnn1` (centres undefined) | 11.2 | 2.842 | -5.999 | 4.516 | -2.313 |
| `COCCN1C(=O)[C@H]2CC[C@@H]1CN(C(=O)CCc1n[nH]c(C)c1C)C2` | 12.05 | 0.5882 | -6.027 | 6.651 | - |
| `CC(C)(CN1CCC2(CCNCC2)CC1)N1CCOCC1` | 4.762 | 4.379 | -16.65 | 3.8 | -12.61 |
| `CN(CC(C)(CO)CO)C(=O)Nc1cc(F)cc(F)c1` | 4.124 | 3.997 | -15.3 | 2.698 | 14.95 |
| `Cc1cnn(CC2CN(CC(=O)NCc3ccccn3)CCO2)c1` (centres undefined) | -4.151 | 4.307 | -14.78 | 1.017 | 10.71 |
| `OC(CN1CCOCC1)CN1CCc2c(ncn2C2CC2)C1` (centres undefined) | 0.3774 | -4.814 | -18.03 | 0.5144 | 1.611 |
| `C1=C(CNC2CCc3ncnn3C2)COc2ccccc21` (centres undefined) | 2.609 | 0.2138 | -33.16 | 0.2186 | -1.991 |
| `O=C(NC(Cc1ccsc1)c1nccs1)C1CC1` (centres undefined) | 9.574 | - | - | 2.296 | 12.19 |
| `Cc1nc(C2CCN(Cc3ncc[nH]3)CC2)no1.O=CO` | - | - | - | - | 13.07 |
| `COc1cc(N(C)CCC(O)c2ccccc2)ncn1` (centres undefined) | 3.279 | 12.76 | 14.98 | 1.35 | -0.9577 |
| `CCc1nc2n(n1)CC(NCC(=O)Nc1nccs1)CC2` (centres undefined) | 5.263 | -0.8655 | 14.44 | -1.908 | - |
| `Cc1cc(NC(=O)NCC(O)COc2ccccc2)n(C)n1` (centres undefined) | 7.647 | -6.656 | -11.28 | 1.414 | -4.353 |
| `[H][C@@]12CCN(C(=O)c3ccc(C)o3)[C@]1([H])CCC(=O)N2CC1CC1` | - | - | - | - | 23.69 |
| `O=C(O)C(F)(F)F.[H][C@@]12CCCO[C@]1([H])[C@@H](OCC1CCOCC1)CN2Cc1ccccc1F` | - | - | - | - | 2.23 |
| `CCC(=O)N1CCN(C(=O)Cn2cccn2)CC1` | 2.041 | -3.193 | - | -0.8043 | 2.257 |
| `CS(=O)(=O)c1snnc1C1CCN(Cc2cccnc2)CC1` | 7.778 | - | -9.665 | 1.457 | 1.829 |
| `Cc1cc(CN2CCN(C(=O)c3sccc3C3CC3)CC2)on1` | -2.642 | -0.8601 | -15.44 | 1.135 | -8.328 |
| `NCC1Cc2cc(F)cc(-c3cnccn3)c2O1` (centres undefined) | 8.108 | -4.461 | -15.83 | 2.368 | 16.63 |
| `Cc1cc(OCC(=O)NCc2ccc(F)cc2)nnc1C` | 11.67 | 3.259 | -11.51 | 8.92 | 4.186 |
| `COC(=O)[C@@H]1CCCN1C(=O)c1cn(CCCc2ccccc2)nn1` | 0 | 0.719 | -0.4149 | 10.45 | -8.047 |
| `O=C(O)C(F)(F)F.O=C(O)C(F)(F)F.O=c1cc(Cn2cncn2)nc2n1CCCN(CCN1CCCC1)C2` | - | - | - | - | -5.118 |
| `Cc1cccc(CN2CCC3(CCCN(C(=O)c4ccoc4)C3)C2=O)n1` (centres undefined) | 3.226 | 3.745 | -5.747 | 4.792 | - |
| `COc1ccc(CNC(C)c2cn[nH]c2C)cc1` (centres undefined) | 6.173 | -4.359 | -17.33 | -0.2981 | -3.375 |
| `Nc1cc(C(=O)N2CCCC(C(=O)CCc3ccccc3)C2)ccn1` (centres undefined) | 0 | 1.903 | -4.353 | 4.672 | -10.92 |
| `CC(C)C(=O)N1CCC(c2nc3ccccn3c2NC(C)(C)C)CC1` | 3.788 | -4.485 | 29.39 | 2.293 | -1.39 |
| `O=C(C1CCCCC1)N1CCC2(CCCN2CC2CC2)CC1.O=C(O)C(F)(F)F` | - | - | - | - | 2.746 |
| `Cc1cccc(N2CCOCC3(C2)CN(c2cccnc2)C(=O)CO3)n1` (centres undefined) | -6.145 | - | -10.49 | 2.308 | 11.92 |
| `Cc1nccn1C1CCCN(C(=O)CCOCC(F)(F)F)C1` (centres undefined) | 0.5882 | 10.61 | -7.063 | -0.02668 | -8.747 |
| `CS(=O)(=O)N1CCO[C@@H]2CN(Cc3ccc(F)cc3)CC[C@@H]2C1` | 2.151 | -1.762 | -34.79 | -0.2133 | - |
| `CN(C)C(=O)CN1CCC2(CCN(C(=O)N(C)C)CC2)C1=O` | -1.942 | 11.48 | -60.36 | -2.529 | 8.247 |
| `CN(C)C(=O)C1(CCCc2ccncc2)CCCN1` (centres undefined) | 1.622 | 2.759 | -22.86 | 0.9645 | 20.69 |
| `COc1ccc(CNc2c(C)nn(C(C)C)c2C)cc1OC.Cl` | - | - | - | - | 1.735 |
| `CCOc1cccc(C2CC(=O)NCc3nc(N(C)C)sc32)c1` (centres undefined) | 4.372 | 4.918 | -32.95 | 1.947 | 13.38 |
| `CCCc1ccc2oc(C(=O)N3CCN(CCC(N)=O)CC3)c(C)c2c1` | 4.721 | 8.542 | -11.46 | 5.509 | -13.95 |
| `CCOCC1CN(C(=O)Cc2ccccn2)Cc2cnn(C)c21.O=C(O)C(F)(F)F.O=C(O)C(F)(F)F` (centres undefined) | - | - | - | - | 6.031 |
| `CC(=O)N1CCCC1c1ccc(C(=O)N2CCOCC2)s1` (centres undefined) | 2.542 | -4.694 | -11.08 | 2.479 | -0.3721 |
| `Cc1cc(C)n(CC2CCCN2CCCS(N)(=O)=O)n1` (centres undefined) | 0 | -4.529 | -13.51 | 0.4689 | -7.895 |
| `CN1C[C@@H](n2cnc(-c3ccccc3)c2-c2ccccn2)C[C@H]1C(=O)O` | 2.674 | -2.794 | -14.52 | 2.43 | -1.81 |
| `CC(=O)Nc1cccc(CN2CCN(C3=NCC(C)(C)S3)CC2)c1` | 2.97 | -0.1608 | 32.7 | 0.04528 | - |
| `CCCC(=O)NCC(=O)NC1CC(C)(C)Cc2oc(C)cc21` (centres undefined) | 7.792 | -2.374 | -12.99 | 1.193 | 9.57 |
| `CCSc1ccc(NC(=O)NC(C)c2c(C)nn(C)c2C)cn1` (centres undefined) | 6.494 | -0.1032 | -42.2 | 4.929 | -0.4927 |
| `O=C(CCNS(=O)(=O)c1ccc(F)c(F)c1)NCc1ccoc1` | 1.667 | 5.576 | -4.266 | 3.454 | 8.953 |

Once more, the final 2:

CCSc1ccc(NC(=O)NC(C)c2c(C)nn(C)c2C)cn1 (centres undefined) gave A: 6.494%; B: -0.1032%; C: -42.2%; D: 4.929%; E: -0.4927%.
O=C(CCNS(=O)(=O)c1ccc(F)c(F)c1)NCc1ccoc1 gave A: 1.667%; B: 5.576%; C: -4.266%; D: 3.454%; E: 8.953%.